Data: article PMC7997880, “MED15 prion-like domain forms a coiled-coil responsible for its amyloid conversion and propagation” (Communications Biology, 2021)
Results are given in words; binding and its absence hold for the method and conditions named. Sequences can lack the tags named with a protein.

Molecular target: GFP-MED15CC (human MED15 prion-like domain, MED15-PrLD, residues 141-316, fused at the C-terminus of GFP) (human)
Test: in vitro aggregation (synchronous light scattering, GFP fluorescence of the supernatant after centrifugation); 5 uM protein, 37 °C without agitation, 9 h, 20 mM Tris, 150 mM NaCl, with 2 M urea; both purified

B1: GFP-MED15CC (human MED15 prion-like domain, MED15-PrLD, residues 141-316, fused at the C-terminus of GFP) (domain or fragment)
chain: MAVVSTATPQTQLQLQQVALQQQQQQQQFQQQQQAALQQQQQQQQQQQFQAQQSAMQQQFQAVVQQQQQLQQQQQQQQHLIKLHHQNQQQIQQQQQQLQRIAQLQLQQQQQQQQQQQQQQQQALQAQPPIQQPPMQQPQPPPSQALPQQLQQMHHTQHHQPPPQPQQPPVAQNQPS
notes: Mediator complex subunit 15 (MED15), human, prion-like domain with the Q-rich coiled-coil and Pro-rich regions, residues 141-316; No cleavage step is described; Dimer by SEC, native PAGE and DLS; source: E. coli BL21 Rosetta, pET21b, purified from the soluble fraction (two HisTrap Ni steps, RNase treatment, PD10); not shown: GFP, N-terminal, kept
With B1 the binding was “no binding (condition: with 2 M urea)”.
